Among the data in patent publication US5698529A, “Chemotherapeutic compositions” (Supratek Pharma, Inc., priority 1996, dated 1997) are IC50 values, retold here.

Converted amounts (≈) assume the structure as drawn.

This assay relates to SKVO3 cells. Put plainly: cells. Format: cell-based. The following applies: Homo sapiens. An excerpt: The antineoplastic agent vinblastine is incorporated into the block copolymer mixture described in Example 3.
The antineoplastic agent mitomycin C is incorporated into the block copolymer mixture described in Example 3.
The antineoplastic agent methotrexate is incorporated into the block copolymer mixture described in Example 3.
The antineoplastic agent daunorubicin is incorporated into the block copolymer mixture described in Example 3.

The term IC50 denotes the midpoint of a concentration-inhibition curve. In turn, `COc1cc2c(c(OC)c1OC)-c1ccc(OC)c(=O)cc1[C@@H](NC(C)=O)CC2` [free colchicine, colchicine] showed an IC50 of 0.95 µg/mL (≈ 2.38 µM).
